PubChem BioAssay AID504774 – Drosophila RNAi Screening Center | 2011
Aim: 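Genes required for cells to withstand methyl methanesulphonate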 (primary screen). Cell system: Drosophila Kc167 cells. Reagents: long dsRNA against Drosophila genes, about 0.25 µg dsRNA per well. Duration: about 6 days: 3 days knock-down, then 3 days with or without MMS. Conditions: methyl methanesulphonate 0.004% (w/v) for 3 days after knock-down. Measurement: 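Viability in wells given MMS, read as ATP luminescence, normalised by quantiles plate by plate and averaged across replicates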. Scale: mean viability with MMS and viability with MMS: higher = more surviving cells after MMS.
The deposit covers about 23,000 reagents; below is a random part of those with a known target gene and a result. 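Values are quantile-normalised luminescence on an arbitrary scale; higher means more cells surviving MMS.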 A plus sign joins genes that one reagent is predicted to hit. Not all columns of the deposit are shown.

no.	gene	dsRNA	mean viability with MMS	viability with MMS, replicate 1
1	CG4733 (GeneID 42368)	DRSC15634	3.40e6	3.78e6
2	yellow-c + CIAPIN1	DRSC01898	3.64e6	4.14e6
3	CG14694 (GeneID 41307)	DRSC14917	3.48e6	3.95e6
4	Spf45 (GeneID 3355114)	DRSC03826	3.44e6	3.91e6
5	RIOK2 (GeneID 43046)	DRSC14413	3.43e6	3.80e6
6	CG11882 (GeneID 43446)	DRSC14425	3.50e6	3.94e6
7	Prosbeta5R1 (GeneID 37690)	DRSC04581	3.40e6	3.67e6
8	CG15498 (GeneID 42548)	DRSC15040	3.81e6	4.37e6
9	CG9902 (GeneID 32622)	DRSC20212	3.61e6	4.08e6
10	FoxL1 (GeneID 38471)	DRSC08717	3.37e6	3.99e6
11	CG8460 (GeneID 34115)	DRSC03090	3.77e6	4.28e6
12	Rpp25 (GeneID 35574)	DRSC05002	3.37e6	3.80e6
13	nSyb (GeneID 38196)	DRSC08727	3.55e6	4.01e6
14	kappaTry (GeneID 36215)	DRSC06146	3.49e6	4.07e6
15	SecS (GeneID 40681)	DRSC12222	3.76e6	4.31e6
16	Tab2 (GeneID 37216)	DRSC07481	3.51e6	3.91e6
17	Mzt1 (GeneID 10178948)	DRSC07979	3.47e6	3.96e6
18	CG33914 (GeneID 3772464)	DRSC05033	3.76e6	4.17e6

The list goes on; the last 4 above are carried over.
no.	gene	dsRNA	mean viability with MMS	viability with MMS, replicate 1
15	SecS (GeneID 40681)	DRSC12222	3.76e6	4.31e6
16	Tab2 (GeneID 37216)	DRSC07481	3.51e6	3.91e6
17	Mzt1 (GeneID 10178948)	DRSC07979	3.47e6	3.96e6
18	CG33914 (GeneID 3772464)	DRSC05033	3.76e6	4.17e6
19	CG32695 (GeneID 31918)	DRSC17975	3.84e6	4.27e6
20	CG30384 (GeneID 246584)	DRSC06032	3.56e6	4.12e6
21	CG15641 (GeneID 32477)	DRSC19677	3.58e6	4.07e6
22	Nsun5 (GeneID 7354421)	DRSC15835	3.49e6	3.98e6
23	Sfp38D (GeneID 8673971)	DRSC01810	3.51e6	4.08e6
24	CG33255 (retired record) + hpRNA:CR32205	DRSC09610	3.62e6	4.09e6
25	CG33255 (retired record) + hpRNA:CR32205	DRSC09611	3.58e6	4.04e6
26	CG34367 (GeneID 5740879)	DRSC02238	3.55e6	4.06e6
27	CG34367 (GeneID 5740879)	DRSC02850	3.71e6	3.97e6
28	Fili (GeneID 5740472)	DRSC03907	3.47e6	3.91e6
29	Fili (GeneID 5740472)	DRSC04132	3.48e6	4.02e6
30	Fili (GeneID 5740472)	DRSC04445	3.64e6	4.15e6
31	CG43861 + CG12508 (retired record)	DRSC02170	3.72e6	4.20e6
32	org-1 (GeneID 31778)	DRSC18810	3.15e6	3.66e6
33	org-1 (GeneID 31778)	DRSC22974	2.89e6	3.36e6
34	hoip (GeneID 44173)	DRSC03546	2.77e6	3.43e6
35	Afg3l2 (GeneID 39922)	DRSC10657	3.54e6	3.98e6
36	Cpr67B (GeneID 39081)	DRSC10373	3.54e6	4.00e6
37	CG7519 (GeneID 40377)	DRSC11834	3.55e6	4.10e6
38	Edg78E (GeneID 40354)	DRSC11863	3.49e6	4.02e6
39	Hex-t1 (GeneID 117364)	DRSC16701	3.26e6	3.69e6
40	CG31659 (GeneID 318875)	DRSC00760	3.50e6	3.95e6
41	Kdm5 (GeneID 33837)	DRSC03133	3.40e6	3.76e6
42	Srr (GeneID 41117)	DRSC16382	3.65e6	4.06e6
43	CG1636 (GeneID 31766)	DRSC18111	3.65e6	4.09e6
44	GXIVsPLA2 (GeneID 39734)	DRSC10243	3.60e6	4.11e6
45	Nup160 + RfC38	DRSC01997	3.44e6	3.90e6
46	CG30395 (GeneID 246589)	DRSC03896	3.60e6	3.91e6
